Reference: article PMC4735695
These are yes or no findings as the source states them, for the method shown. Binding seen in cells or lysates may run through a third protein. Some binding calls cover weakened binding; strength is not graded here.

Amino acid sequences for entries named in this document (tags omitted). A change or cut given only in a name is not applied to a line headed by its entry.
UniProt P60953: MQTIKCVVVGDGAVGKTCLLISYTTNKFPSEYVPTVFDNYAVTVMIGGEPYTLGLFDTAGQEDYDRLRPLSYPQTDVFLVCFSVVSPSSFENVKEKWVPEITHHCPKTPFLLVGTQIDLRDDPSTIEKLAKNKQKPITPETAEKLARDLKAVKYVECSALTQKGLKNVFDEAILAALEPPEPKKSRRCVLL
UniProt Q6XZF7: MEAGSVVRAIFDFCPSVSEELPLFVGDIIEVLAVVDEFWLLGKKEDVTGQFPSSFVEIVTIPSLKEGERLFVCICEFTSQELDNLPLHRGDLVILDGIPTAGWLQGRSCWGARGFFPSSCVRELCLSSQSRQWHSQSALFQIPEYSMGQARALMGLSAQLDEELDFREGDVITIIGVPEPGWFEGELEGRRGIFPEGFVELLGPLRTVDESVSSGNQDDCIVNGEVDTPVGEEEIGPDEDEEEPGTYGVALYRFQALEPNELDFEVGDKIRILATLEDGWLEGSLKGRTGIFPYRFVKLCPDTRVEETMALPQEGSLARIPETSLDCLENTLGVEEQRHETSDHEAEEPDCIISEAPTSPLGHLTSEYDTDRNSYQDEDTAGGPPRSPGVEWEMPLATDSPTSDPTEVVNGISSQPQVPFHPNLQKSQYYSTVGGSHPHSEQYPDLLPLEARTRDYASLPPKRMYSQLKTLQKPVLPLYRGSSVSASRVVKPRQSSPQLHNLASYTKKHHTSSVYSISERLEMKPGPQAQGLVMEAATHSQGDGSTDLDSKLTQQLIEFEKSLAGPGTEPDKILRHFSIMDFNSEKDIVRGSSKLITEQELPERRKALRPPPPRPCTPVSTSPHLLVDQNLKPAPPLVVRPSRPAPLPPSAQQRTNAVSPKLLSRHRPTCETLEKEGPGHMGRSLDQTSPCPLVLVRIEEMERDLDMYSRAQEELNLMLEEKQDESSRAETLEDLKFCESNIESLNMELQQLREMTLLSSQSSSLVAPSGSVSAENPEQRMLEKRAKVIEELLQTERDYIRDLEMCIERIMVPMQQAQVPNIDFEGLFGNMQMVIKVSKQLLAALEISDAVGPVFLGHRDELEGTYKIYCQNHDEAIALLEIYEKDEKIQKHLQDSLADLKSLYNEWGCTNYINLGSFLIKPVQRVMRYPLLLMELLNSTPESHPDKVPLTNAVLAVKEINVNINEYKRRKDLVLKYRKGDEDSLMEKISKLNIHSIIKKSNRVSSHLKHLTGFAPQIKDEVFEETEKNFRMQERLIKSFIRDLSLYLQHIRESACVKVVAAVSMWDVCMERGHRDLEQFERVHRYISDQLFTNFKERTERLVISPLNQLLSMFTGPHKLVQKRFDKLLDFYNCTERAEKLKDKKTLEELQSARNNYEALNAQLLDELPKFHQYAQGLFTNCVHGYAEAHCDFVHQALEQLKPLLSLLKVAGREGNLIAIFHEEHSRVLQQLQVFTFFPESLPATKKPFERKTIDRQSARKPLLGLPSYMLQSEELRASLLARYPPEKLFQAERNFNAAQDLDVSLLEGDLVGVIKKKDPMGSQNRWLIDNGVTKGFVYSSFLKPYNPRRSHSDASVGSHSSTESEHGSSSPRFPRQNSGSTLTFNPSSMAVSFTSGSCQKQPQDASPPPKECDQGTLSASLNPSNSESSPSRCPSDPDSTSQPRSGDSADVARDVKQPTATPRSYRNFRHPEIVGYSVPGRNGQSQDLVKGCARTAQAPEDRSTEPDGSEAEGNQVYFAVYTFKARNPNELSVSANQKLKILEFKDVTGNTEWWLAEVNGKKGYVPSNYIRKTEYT

Biological target: GST-Cdc42-G15A (UniProt P60953)
Assay: pull-down; GST-Cdc42-G15A on beads; lysates of HEK293T cells transfected with HA-Tuba (WT or YF mutant; with or without Flag-Shp2-E76G), lysis buffer 50 mM HEPES pH 7.5, 1% Triton X-100, 150 mM NaCl, 20 mM NaF, 1 mM Na3VO4, 1 mM DTT; precleared with GST beads 10 min at 4 °C; precipitated HA-Tuba seen by western blot with HA antibody; read by the paper as GEF activity; only the target purified

binding: binds weakly
Substance: HA-Tuba Y430F/Y515F mutant (from UniProt Q6XZF7 1-1577)
